# Test results taken from the supplement of paper PMC8728848.
# The other results are listed elsewhere or left out.
# B1: Layilin (Mus musculus), Q8C351 (protein)
# chain: MQPGAALQAMLLAVLLAKPRDSKGRLLSASDLDPRGGQLVCRGGTRRPCYKVIYFHDAFQRLNFEEAKETCMEDGGQLVSIETEDEQRLIEKFIENLLASDGDFWIGLKRLEEKQSNNTACQDLYAWTDGSTSQFRNWYVDEPSCGSEVCVVMYHQPSAPPGIGGSYMFQWNDDRCNMKNNFICKYHDDKPSTTPSIWPGGEATEPATPLLPEETQKEDTKETFKERREAALNLAYILIPSIPLFLLLVVTSAVCWVWICRRKREQTDPSTKEQHTIWPTPRQENSPNLDVYNVIRKQSEADLAEPRPDLKNISFRVCSGEAMPDDMSCDYENIAVNPSESGFVTLASMESGFVTNDIYEFSPDRMGRSKESGWVENEIYY
# Tests used:
# Experiment in all cases: glycan array binding signal (z-score within array); higher = stronger binding
# Settings in all cases: glycan notation: IUPAC condensed, linker removed
# [1] = molecular target: Fuc(a1-3)[Gal(b1-4)]GlcNAc(b1-2)Man(a1-3)[Fuc(a1-3)[Gal(b1-4)]GlcNAc(b1-2)Man(a1-6)]Man(b1-4)GlcNAc(b1-4)[Fuc(a1-6)]GlcNAc
# Summary of the method: (§1)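 Glycan array binding is given as a within-array Z-score, which can be read as non-binding when negative. The arrays, 3228 of them, came from the Consortium for Functional Glycomics database and were retained only where the protein sequence was available. Z-scores were averaged across arrays of the same protein sequence at different concentrations or buffers and across linkers.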
# [2] = molecular target: Fuc(a1-3)[Gal(b1-4)]GlcNAc(b1-3)Gal(b1-3)[Fuc(a1-4)]GlcNAc
# Summary of the method: as §1
# [3] = molecular target: Fuc(a1-3)[Gal(b1-4)]GlcNAc(b1-3)GalNAc
# Summary of the method: as §1
# [4] = molecular target: Fuc(a1-3)[Gal(b1-4)]GlcNAc(b1-4)Gal(b1-4)[Fuc(a1-3)]GlcNAc
# Summary of the method: as §1
# [5] = molecular target: Fuc(a1-3)[Gal(b1-4)]GlcNAc(b1-4)Gal(b1-4)[Fuc(a1-3)]GlcNAc(b1-4)Gal(b1-4)[Fuc(a1-3)]GlcNAc
# Summary of the method: as §1
# [6] = molecular target: Fuc(a1-3)[Gal(b1-4)]GlcNAc(b1-6)GalNAc
# Summary of the method: as §1
# [7] = molecular target: Fuc(a1-3)[Gal(b1-4)]GlcNAc(b1-6)[Gal(b1-3)GlcNAc(b1-3)]Gal(b1-4)Glc
# Summary of the method: as §1
# [8] = molecular target: Fuc(a1-3)[Gal(b1-4)]GlcNAc(b1-6)[Neu5Ac(a2-3)Gal(b1-3)]GalNAc
# Summary of the method: as §1
# [9] = molecular target: Fuc(a1-3)[Gal(b1-4)]GlcNAc6S
# Summary of the method: as §1
# [10] = molecular target: Fuc(a1-3)[Gal3S(b1-4)]GlcNAc
# Summary of the method: as §1
# [11] = molecular target: Fuc(a1-3)[Gal3S(b1-4)]GlcNAc6S
# Summary of the method: as §1
# [12] = molecular target: Fuc(a1-3)[GalNAc(b1-4)]GlcNAc
# Summary of the method: as §1
# Fuc(a1-4)GlcNAc = molecular target: Fuc(a1-4)GlcNAc
# Summary of the method: as §1
# Fuc(b1-3)GlcNAc = molecular target: Fuc(b1-3)GlcNAc
# Summary of the method: as §1
# Gal(a1-2)Gal = molecular target: Gal(a1-2)Gal
# Summary of the method: as §1
# Gal(a1-3)Gal = molecular target: Gal(a1-3)Gal
# Summary of the method: as §1
# Gal(a1-3)Gal(b1-3)GlcNAc = molecular target: Gal(a1-3)Gal(b1-3)GlcNAc
# Summary of the method: as §1
# [13] = molecular target: Gal(a1-3)Gal(b1-3)GlcNAc(b1-2)Man(a1-3)[Gal(a1-3)Gal(b1-3)GlcNAc(b1-2)Man(a1-6)]Man(b1-4)GlcNAc(b1-4)GlcNAc
# Summary of the method: as §1
# [14] = molecular target: Gal(a1-3)Gal(b1-3)GlcNAc(b1-3)GalNAc
# Summary of the method: as §1
# [15] = molecular target: Gal(a1-3)Gal(b1-3)[Fuc(a1-4)]GlcNAc(b1-2)Man(a1-3)[Gal(a1-3)Gal(b1-3)[Fuc(a1-4)]GlcNAc(b1-2)Man(a1-6)]Man(b1-4)GlcNAc(b1-4)GlcNAc
# Summary of the method: as §1
# Gal(a1-3)Gal(b1-4)Glc = molecular target: Gal(a1-3)Gal(b1-4)Glc
# Summary of the method: as §1
# Gal(a1-3)Gal(b1-4)GlcNAc = molecular target: Gal(a1-3)Gal(b1-4)GlcNAc
# Summary of the method: as §1
# [16] = molecular target: Gal(a1-3)Gal(b1-4)GlcNAc(b1-3)GalNAc
# Summary of the method: as §1
# [17] = molecular target: Gal(a1-3)Gal(b1-4)[Fuc(a1-3)]GlcNAc
# Summary of the method: as §1
# [18] = molecular target: Gal(a1-3)Gal(b1-4)[Fuc(a1-3)]GlcNAc(b1-2)Man(a1-3)[Gal(a1-3)Gal(b1-4)[Fuc(a1-3)]GlcNAc(b1-2)Man(a1-6)]Man(b1-4)GlcNAc(b1-4)GlcNAc
# Summary of the method: as §1
# Gal(a1-3)GalNAc = molecular target: Gal(a1-3)GalNAc
# Summary of the method: as §1
# [19] = molecular target: Gal(a1-3)[Gal(a1-4)]Gal(b1-4)GlcNAc
# Summary of the method: as §1
# [20] = molecular target: Gal(a1-4)Gal(b1-3)GlcNAc(b1-2)Man(a1-3)[Gal(a1-4)Gal(b1-3)GlcNAc(b1-2)Man(a1-6)]Man(b1-4)GlcNAc(b1-4)GlcNAc
# Summary of the method: as §1
# Gal(a1-4)Gal(b1-4)Glc = molecular target: Gal(a1-4)Gal(b1-4)Glc
# Summary of the method: as §1
# Gal(a1-4)Gal(b1-4)GlcNAc = molecular target: Gal(a1-4)Gal(b1-4)GlcNAc
# Summary of the method: as §1
# [21] = molecular target: Gal(a1-4)Gal(b1-4)GlcNAc(b1-2)Man(a1-3)[Gal(a1-4)Gal(b1-4)GlcNAc(b1-2)Man(a1-6)]Man(b1-4)GlcNAc(b1-4)GlcNAc
# Summary of the method: as §1
# [22] = molecular target: Gal(a1-4)Gal(b1-4)GlcNAc(b1-3)Gal(b1-4)Glc
# Summary of the method: as §1
# Gal(a1-4)GlcNAc = molecular target: Gal(a1-4)GlcNAc
# Summary of the method: as §1
# Gal(a1-6)Glc = molecular target: Gal(a1-6)Glc
# Summary of the method: as §1
# Gal(b1-2)Gal = molecular target: Gal(b1-2)Gal
# Summary of the method: as §1
# Gal(b1-3)Gal = molecular target: Gal(b1-3)Gal
# Summary of the method: as §1
# Gal(b1-3)Gal(b1-4)GlcNAc = molecular target: Gal(b1-3)Gal(b1-4)GlcNAc
# Summary of the method: as §1
# [23] = molecular target: Gal(b1-3)Gal(b1-4)GlcNAc(b1-2)Man(a1-3)[Gal(b1-3)Gal(b1-4)GlcNAc(b1-2)Man(a1-6)]Man(b1-4)GlcNAc(b1-4)GlcNAc
# Summary of the method: as §1
# Gal(b1-3)GalNAc = molecular target: Gal(b1-3)GalNAc
# Summary of the method: as §1
# [24] = molecular target: Gal(b1-3)GalNAc(a1-3)[Fuc(a1-2)]Gal(b1-4)Glc
# Summary of the method: as §1
# [25] = molecular target: Gal(b1-3)GalNAc(a1-3)[Fuc(a1-2)]Gal(b1-4)GlcNAc
# Summary of the method: as §1
# [26] = molecular target: Gal(b1-3)GalNAc(b1-3)Gal(a1-4)Gal(b1-4)Glc
# Summary of the method: as §1
# [27] = molecular target: Gal(b1-3)GalNAc(b1-4)Gal(b1-4)Glc
# Summary of the method: as §1
# [28] = molecular target: Gal(b1-3)GalNAc(b1-4)[Neu5Ac(a2-3)]Gal(b1-4)Glc
# Summary of the method: as §1
# Gal(b1-3)GlcNAc = molecular target: Gal(b1-3)GlcNAc
# Summary of the method: as §1
binder,measurement,setting,value
B1,glycan array binding signal (z-score),[1],1.43
same,glycan array binding signal (z-score),[2],-0.959
same,glycan array binding signal (z-score),[3],2.71
same,glycan array binding signal (z-score),[4],2.48
same,glycan array binding signal (z-score),[5],-0.267
same,glycan array binding signal (z-score),[6],1.8
same,glycan array binding signal (z-score),[7],-1.03
same,glycan array binding signal (z-score),[8],0.249
same,glycan array binding signal (z-score),[9],-0.936
same,glycan array binding signal (z-score),[10],0.329
same,glycan array binding signal (z-score),[11],0.08
same,glycan array binding signal (z-score),[12],-0.453
same,glycan array binding signal (z-score),Fuc(a1-4)GlcNAc,0.111
same,glycan array binding signal (z-score),Fuc(b1-3)GlcNAc,0.342
same,glycan array binding signal (z-score),Gal(a1-2)Gal,0.185
same,glycan array binding signal (z-score),Gal(a1-3)Gal,-0.772
same,glycan array binding signal (z-score),Gal(a1-3)Gal(b1-3)GlcNAc,-0.17
same,glycan array binding signal (z-score),[13],1.5
same,glycan array binding signal (z-score),[14],0.017
same,glycan array binding signal (z-score),[15],-0.26
same,glycan array binding signal (z-score),Gal(a1-3)Gal(b1-4)Glc,-0.614
same,glycan array binding signal (z-score),Gal(a1-3)Gal(b1-4)GlcNAc,-0.698
same,glycan array binding signal (z-score),[16],-0.956
same,glycan array binding signal (z-score),[17],0.504
same,glycan array binding signal (z-score),[18],-0.345
same,glycan array binding signal (z-score),Gal(a1-3)GalNAc,0.901
same,glycan array binding signal (z-score),[19],-0.142
same,glycan array binding signal (z-score),[20],-0.437
same,glycan array binding signal (z-score),Gal(a1-4)Gal(b1-4)Glc,-0.76
same,glycan array binding signal (z-score),Gal(a1-4)Gal(b1-4)GlcNAc,-0.138
same,glycan array binding signal (z-score),[21],-0.645
same,glycan array binding signal (z-score),[22],3.88
same,glycan array binding signal (z-score),Gal(a1-4)GlcNAc,0.409
same,glycan array binding signal (z-score),Gal(a1-6)Glc,-0.455
same,glycan array binding signal (z-score),Gal(b1-2)Gal,-0.724
same,glycan array binding signal (z-score),Gal(b1-3)Gal,-1.05
same,glycan array binding signal (z-score),Gal(b1-3)Gal(b1-4)GlcNAc,-0.572
same,glycan array binding signal (z-score),[23],0.348
same,glycan array binding signal (z-score),Gal(b1-3)GalNAc,-0.15
same,glycan array binding signal (z-score),[24],-0.796
same,glycan array binding signal (z-score),[25],0.846
same,glycan array binding signal (z-score),[26],-0.972
same,glycan array binding signal (z-score),[27],-0.562
same,glycan array binding signal (z-score),[28],-0.593
same,glycan array binding signal (z-score),Gal(b1-3)GlcNAc,-0.083

# Three neighbouring records out of the list so far:
binder,measurement,setting,value
B1,glycan array binding signal (z-score),Gal(a1-4)GlcNAc,0.409
same,glycan array binding signal (z-score),Gal(a1-6)Glc,-0.455
same,glycan array binding signal (z-score),Gal(b1-2)Gal,-0.724
